Record: PubChem BioAssay AID1259327 (Drosophila RNAi Screening Center, 2017)
Screen: 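Knock-downs altering cellular ATP with no metal added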. Cells: Drosophila S2R+ cells. Knock-down reagent: long dsRNA against Drosophila genes. Time to read-out: 5 days (water added on day 4, read one day later). Treatment: water added as vehicle, no metal, one day before read-out. Read-out: 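Total ATP measured by luciferase light, scaled to plate mean, duplicates averaged, then z-scored across plates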. Direction: ATP z-score: higher = more total ATP than typical wells; ATP luminescence: higher = more total ATP. Active means: 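a hit is any knock-down whose absolute ATP z-score is greater than 1.5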. Meaning of the calls: active = hit: ATP up or down; inactive = no clear ATP change.
Shown is an unselected part of about 3,100 reagents. In the full data, 378 (12%) got an active call. 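Hits include both directions; z-score sign shows ATP rise or fall; raw luminescence values are not plate-normalised.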 Entries without a mark were called inactive. Not stated in the record: the amount of reagent.

| Target gene | amplicon | ATP z-score, duplicate mean | ATP luminescence, replicate 1 (RLU) | ATP luminescence, replicate 2 (RLU) |
| --- | --- | --- | --- | --- |
| Grl65a | DRSC08837 | -0.472 | 6.83e5 | 7.00e5 |
| Grl65a | DRSC25986 | -0.28 | 7.47e5 | 8.84e5 |
| Gr59f | DRSC04499 | 0.11 | 7.49e5 | 7.27e5 |
| Gr59f | DRSC27044 | -0.402 | 8.15e5 | 9.58e5 |
| ed | DRSC00350 | -0.922 | 4.54e5 | 3.72e5 |
| ed | DRSC00439 | -0.598 | 2.65e5 | 7.16e5 |
| ed | DRSC00478 | -0.369 | 6.99e5 | 6.75e5 |
| nAChRalpha3 | DRSC18800 | -1.14 | 5.99e5 | 5.40e5 |
| nAChRalpha3 | DRSC25751 | -0.207 | 8.08e5 | 8.41e5 |
| Nhe3 | DRSC03380 | 0.838 | 7.72e5 | 8.57e5 |
| Nhe3 | DRSC39850 | 1.4 | 5.43e5 | 6.14e5 |
| CG6574 | DRSC16070 | 1.25 | 3.68e5 | 8.66e5 |
| CG6574 | DRSC39694 | -0.932 | 3.93e5 | 4.11e5 |
| anne | DRSC17103 | -1.16 | 8.01e5 | 6.89e5 |
| anne | DRSC29952 | 0.517 | 5.93e5 | 6.54e5 |
| Ent2 | DRSC28879 | 1.93 (active) | 1.11e6 | 1.01e6 |
| Ent2 | DRSC39799 | -1.61 (active) | 3.52e5 | 3.82e5 |
| fng | DRSC11887 | 0.353 | 7.68e5 | 7.70e5 |
| fng | DRSC21935 | -1.01 | 4.93e5 | 4.94e5 |
| Tsp42Ec | DRSC06192 | 0.866 | 8.56e5 | 5.39e5 |
| Tsp42Ec | DRSC26768 | -0.997 | 1.00e6 | 9.83e5 |
| ItgaPS5 | DRSC04501 | 1.44 | 8.70e5 | 8.87e5 |
| ItgaPS5 | DRSC28842 | 0.77 | 9.85e5 | 8.52e5 |
| CG7744 | DRSC07036 | 0.587 | 8.19e5 | 7.68e5 |
| CG7744 | DRSC39431 | 1.69 (active) | 6.07e5 | 5.26e5 |
| Ir56c | DRSC06544 | 1.4 | 7.91e5 | 7.02e5 |
| Ir56c | DRSC26227 | 0.667 | 1.04e6 | 8.25e5 |
| PIG-A | DRSC06982 | 0.332 | 7.50e5 | 7.84e5 |
| iav | DRSC25119 | -1.72 (active) | 5.34e5 | 6.89e5 |
| iav | DRSC39553 | -1.21 | 3.70e5 | 3.96e5 |
| CG32305 | DRSC08614 | 0.0754 | 5.73e5 | 6.80e5 |
| CG32305 | DRSC29854 | 0.145 | 7.15e5 | 4.67e5 |
| CG8219 | DRSC10971 | -0.373 | 8.68e5 | 8.26e5 |
| CG8219 | DRSC24577 | 0.134 | 8.67e5 | 8.67e5 |
| CG15880 | DRSC00474 | -0.616 | 6.72e5 | 6.13e5 |
| CG15880 | DRSC39795 | -0.124 | 4.90e5 | 4.49e5 |
| eloF | DRSC15162 | -0.0921 | 2.83e5 | 7.84e5 |
| eloF | DRSC25406 | -0.343 | 8.69e5 | 7.02e5 |
| pcx | DRSC18188 | -0.339 | 6.80e5 | 7.33e5 |
| pcx | DRSC18189 | -2.09 (active) | 6.66e5 | 6.85e5 |
| Nup214 | DRSC04421 | 0.187 | 6.72e5 | 8.32e5 |
| Nup214 | DRSC39709 | 1.07 | 5.63e5 | 5.12e5 |
| PIG-G | DRSC06823 | 1.46 | 9.58e5 | 8.14e5 |
| CG31787 | DRSC01632 | -0.344 | 6.85e5 | 7.26e5 |
| Nmda1 | DRSC07479 | -0.00366 | 6.64e5 | 8.00e5 |
| Nmda1 | DRSC26357 | 0.708 | 8.75e5 | 1.00e6 |

Reformatted: results already given.
{"Target gene": "CG31787", "amplicon": "DRSC01632", "ATP z-score, duplicate mean": -0.344, "ATP luminescence, replicate 1 (RLU)": 6.85e5, "ATP luminescence, replicate 2 (RLU)": 7.26e5}
{"Target gene": "Nmda1", "amplicon": "DRSC07479", "ATP z-score, duplicate mean": -0.00366, "ATP luminescence, replicate 1 (RLU)": 6.64e5, "ATP luminescence, replicate 2 (RLU)": 8.00e5}
